Results as given in PMC7845544 (Frontiers in Pharmacology, 2021).

Amino acid sequences for entries named in this document (tags omitted). Residues count along the entry.
UniProt P22888, 27-699 limits assumed: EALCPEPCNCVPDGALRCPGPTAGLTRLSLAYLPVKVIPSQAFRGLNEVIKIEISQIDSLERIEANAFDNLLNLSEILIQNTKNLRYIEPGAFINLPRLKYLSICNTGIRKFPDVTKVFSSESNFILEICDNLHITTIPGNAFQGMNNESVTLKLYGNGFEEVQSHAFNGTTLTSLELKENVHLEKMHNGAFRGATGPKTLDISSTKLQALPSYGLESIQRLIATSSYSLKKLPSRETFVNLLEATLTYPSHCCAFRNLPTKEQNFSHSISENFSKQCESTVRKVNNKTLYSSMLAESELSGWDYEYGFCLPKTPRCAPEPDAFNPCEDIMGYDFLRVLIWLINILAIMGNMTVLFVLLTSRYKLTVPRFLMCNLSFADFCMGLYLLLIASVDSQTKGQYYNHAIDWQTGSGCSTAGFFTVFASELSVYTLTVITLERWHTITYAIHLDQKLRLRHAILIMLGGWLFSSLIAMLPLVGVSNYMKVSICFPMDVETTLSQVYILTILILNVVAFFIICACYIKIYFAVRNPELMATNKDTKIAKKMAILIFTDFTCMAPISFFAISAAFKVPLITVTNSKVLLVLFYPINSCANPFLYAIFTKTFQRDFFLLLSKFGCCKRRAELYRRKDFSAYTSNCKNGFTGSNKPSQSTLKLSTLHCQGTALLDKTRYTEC

How the values were obtained:
[1] = biological target: hLH/CGR (Homo sapiens, UniProt P22888); experiment: cAMP (HTRF) in CHO cells transfected with hLH/CGR; settings: CHO assays
[2] = tested on: human granulosa cells; experiment: Estradiol production from pooled human granulosa-lutein cells (Boston IVF); settings: second culture (Figure 4B)

COc1cc2c(cc1-c1cnn(CCO)c1)-c1c(c(C(=O)N(C)C(C)(C)C)nn1-c1cc(Cl)cc(Cl)c1)CO2 [TOP5300]
Ratio of EC50 LHR/FSHR [1]: approximately 6 and 6 | fold greater maximal estradiol response than rec-hFSH [2]: 7 fold and approximately 7 fold

Some entries of the source have several records that differ or are many. The list is limited to them. The source may hold further records. The values listed for one entry differ, and nothing given here explains why; dose, time, organism, isomer or construct need not be as stated for each record.
